Results deposited as PubChem BioAssay AID1159578 (Peter MacCallum Cancer Centre, 2015)
The deposit covers about 18,000 reagents; this is an unselected part. About 1,030 of them (5.7%) were called active. 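Inactive calls also include pools with fewer than 3300 nuclei, whose migration was not assessed.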 Raw values are not corrected between plates. Not all columns of the deposit are shown. Reagent sequences are not shown.

Test: 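siRNA pools altering how lymphatic endothelial cells close a scratch wound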 (primary screen)
Cells: human lymphatic endothelial cells
Reagents: siRNA pool against human genes, 40 nM
Time to read-out: 48 h after transfection
Detection: 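Cells stained with dye and imaged after a scratch; covered wound area and nuclei counted, duplicates averaged, migration set against mock wells and turned into a robust z-score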
Reading the numbers: migration robust z-score: higher = faster migration into the scratch; nuclei per well: higher = more cells in the well
Active means: 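Migration changed when robust z exceeds 2 or falls below -2 and mean nuclei number is at least 3300; otherwise not called changed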
Meaning of the calls: active = migration changed; inactive = no migration change, or too few cells

Knock-down of ZNF775 (zinc finger protein 775) came out at: migration robust z-score -2.04; migration class with cell-count check migration z below -2; enough cells; nuclei per well, duplicate mean 5755; active. Silencing of MYO6 (myosin VI) gave: migration robust z-score -0.42; migration class with cell-count check migration z between -2 and 2; enough cells; nuclei per well, duplicate mean 7186; inactive. Depletion of TRMT10B (tRNA methyltransferase 10B) came out at: migration robust z-score -1.34; migration class with cell-count check migration z between -2 and 2; enough cells; nuclei per well, duplicate mean 5020; inactive. After knock-down of NKX6-1 (NK6 homeobox 1), the record shows migration robust z-score 0.83; migration class with cell-count check migration z between -2 and 2; enough cells; nuclei per well, duplicate mean 5618; inactive. With knock-down of TAX1BP3 (Tax1 binding protein 3) the results were migration robust z-score -1.53; migration class with cell-count check migration z between -2 and 2; enough cells; nuclei per well, duplicate mean 5679; inactive. PCOLCE (procollagen C-endopeptidase enhancer) scored migration robust z-score 0.57; migration class with cell-count check migration z between -2 and 2; enough cells; nuclei per well, duplicate mean 5405; inactive.

Against IFT22 (intraflagellar transport 22), the entry reads migration robust z-score 1.96; migration class with cell-count check migration z between -2 and 2; enough cells; nuclei per well, duplicate mean 6005; inactive. For DYRK3 (dual specificity tyrosine phosphorylation regulated kinase 3) the deposit lists migration robust z-score -1.06; migration class with cell-count check migration z between -2 and 2; enough cells; nuclei per well, duplicate mean 3795; inactive. For WDR49 (WD repeat domain 49) the deposit lists migration robust z-score 0.09; migration class with cell-count check migration z between -2 and 2; enough cells; nuclei per well, duplicate mean 5750; inactive. After knock-down of KYAT3 (kynurenine aminotransferase 3) the results were migration robust z-score -0.42; migration class with cell-count check migration z between -2 and 2; enough cells; nuclei per well, duplicate mean 5385; inactive. Silencing of UTP25 (UTP25 small subunit processome component) resulted in: migration robust z-score -4.31; migration class with cell-count check under 3300 nuclei; migration not judged; nuclei per well, duplicate mean 2014; inactive. Knock-down of PCDHB16 (protocadherin beta 16) came out at: migration robust z-score 1.09; migration class with cell-count check migration z between -2 and 2; enough cells; nuclei per well, duplicate mean 6574; inactive.

Against TAS1R3 (taste 1 receptor member 3), the values are migration robust z-score 0.42; migration class with cell-count check migration z between -2 and 2; enough cells; nuclei per well, duplicate mean 4772; inactive.

A few values from the list.
Value for WDR49 (WD repeat domain 49) under “migration class with cell-count check”: migration z between -2 and 2; enough cells
Value of TRMT10B (tRNA methyltransferase 10B) under “Outcome”: inactive
Under “migration class with cell-count check”, KYAT3 (kynurenine aminotransferase 3) reads migration z between -2 and 2; enough cells

More records:
Knock-down of RP2 (RP2 activator of ARL3 GTPase) resulted in: migration robust z-score 0.11; migration class with cell-count check migration z between -2 and 2; enough cells; nuclei per well, duplicate mean 6825; inactive. Silencing of SORL1 (sortilin related receptor 1) resulted in: migration robust z-score 0.16; migration class with cell-count check migration z between -2 and 2; enough cells; nuclei per well, duplicate mean 5704; inactive. Knock-down of ERI1 (exoribonuclease 1) resulted in: migration robust z-score 0.16; migration class with cell-count check migration z between -2 and 2; enough cells; nuclei per well, duplicate mean 6429; inactive. After knock-down of ALAD (aminolevulinate dehydratase), the screen gave migration robust z-score -1.4; migration class with cell-count check migration z between -2 and 2; enough cells; nuclei per well, duplicate mean 6218; inactive. Against PTCHD4 (patched domain containing 4), the values are migration robust z-score 0.28; migration class with cell-count check migration z between -2 and 2; enough cells; nuclei per well, duplicate mean 6363; inactive. With knock-down of RFX4 (regulatory factor X4), the screen gave migration robust z-score -0.08; migration class with cell-count check migration z between -2 and 2; enough cells; nuclei per well, duplicate mean 5042; inactive.

Against LEFTY2 (left-right determination factor 2), the values are migration robust z-score 0.02; migration class with cell-count check migration z between -2 and 2; enough cells; nuclei per well, duplicate mean 6148; inactive. For CCT2 (chaperonin containing TCP1 subunit 2), the entry reads migration robust z-score 0.18; migration class with cell-count check migration z between -2 and 2; enough cells; nuclei per well, duplicate mean 4730; inactive. For SLC27A4, the entry reads migration robust z-score 1.01; migration class with cell-count check migration z between -2 and 2; enough cells; nuclei per well, duplicate mean 5182; inactive. Depletion of APOA5 (apolipoprotein A5) resulted in: migration robust z-score 1.12; migration class with cell-count check migration z between -2 and 2; enough cells; nuclei per well, duplicate mean 6849; inactive. Depletion of SHISA3 (shisa family member 3) came out at: migration robust z-score 1.75; migration class with cell-count check migration z between -2 and 2; enough cells; nuclei per well, duplicate mean 5507; inactive. With knock-down of FNBP1L (formin binding protein 1 like), the screen gave migration robust z-score -0.36; migration class with cell-count check migration z between -2 and 2; enough cells; nuclei per well, duplicate mean 6028; inactive.

With knock-down of COL4A5 (collagen type IV alpha 5 chain), the record shows migration robust z-score -0.94; migration class with cell-count check migration z between -2 and 2; enough cells; nuclei per well, duplicate mean 5312; inactive. RNF26 (ring finger protein 26) gave migration robust z-score -1.48; migration class with cell-count check migration z between -2 and 2; enough cells; nuclei per well, duplicate mean 5386; inactive.
